Some of the results follow. These are further read-outs of the screen, such as a control signal, another cell line or another target. No call is given for them. Compounds called inactive in the main read-out are mostly missing here. Potencies come from curve fits of mixed quality, noted in brackets.
Assay: qHTS Assay for Lipid Storage Modulators in Drosophila S3 Cells;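 for cell number change: cells counted by Cell Tracker Red CMTPX staining in the red channel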
Details: BODIPY lipid droplet fluorescence, 18-24 h; for cell number change: measured here: cell count max response, cells fed with added oleic acid
How it was run: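 Drosophila S3 cells loaded with oleic acid (400 uM, as added) and compounds at several concentrations; lipid droplets imaged by 488-nm laser-scanning cytometry, 500–530 nm intensity and object ratio to cell channel. Percent activity normalized to 20 uM Triacsin C.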

[1] = measured here: cell number channel AC50, cells fed with added oleic acid
[2] = measured here: lipid fluorescence (Fed channel) AC50, cells fed with added oleic acid

Structure (SMILES)	cell number change	AC50 [1]	AC50 [2]
CC1=NN(c2ccccc2)C(=O)/C1=C\N1CC(C)OC(C)C1 (stereo not given)	30.1%	18.4 µM [rising, single point]	18.4 µM [rising, single point]
CC(C)CCNC(=O)c1c[nH]c2ccc(S(=O)(=O)N3CCC4(CC3)OCCO4)cc2c1=O	9.74%	–	0.731 µM [rising, full curve, poor fit]
COc1cc(/C=N/n2c(C)nc3ccccc3c2=O)ccc1O	14.9%	–	–
CCCCn1c(-c2csc3c2CCC(C)C3)n[nH]c1=S (stereo not given)	-61.8%	14.6 µM [falling, partial curve]	11.6 µM [falling, partial curve]
CCCCOC(=O)C1=C(C)Nc2ncnn2C1c1cccc(OC)c1 (stereo not given)	-31.8%	29.1 µM [falling, single point]	–
O=c1c2ccc(Cl)cc2nc(-c2ccc([N+](=O)[O-])cc2)n1O	-49.4%	29.1 µM [falling, single point]	–
C/C(=N\N=C\c1ccccc1)c1nnn(-c2nonc2N)c1C	29.2%	–	32.6 µM [rising, partial curve, poor fit]
CC(=O)N1CCc2c(sc(NC(=O)Cc3ccc(C)cc3C)c2C#N)C1	36.6%	18.4 µM [rising, single point]	–
Cc1cc2c(c(=O)n1Cc1ccccc1)C1O[C@](CCCCN3C(=O)c4ccccc4C3=O)(Cc3cc(C#N)ccc31)O2	19.8%	–	–
COC(=O)C(C(=O)OC)N1C(=O)CCC1=O	-226%	29.1 µM [falling, partial curve]	25.9 µM [falling, partial curve]
Cc1ccc(F)cc1NC(=O)CCNC(=O)c1ccc([N+](=O)[O-])cc1	14.1%	–	6.51 µM [falling, single point]
CC(C)C(=O)Nc1ccc(Cc2ccc(NC(=O)C(C)C)c(O)c2)cc1O	1.98%	6.51 µM [falling, single point]	–
O=C(O)/C=C/C(=O)N1CCN(c2cccc(Cl)c2)CC1	34.4%	16.4 µM [rising, single point]	–
COc1ccc(S(=O)(=O)NCC(=O)N(CC(=O)NCC2CCCO2)c2c(C)cccc2C)cc1 (stereo not given)	47.5%	20.6 µM [rising, single point]	–
Cc1cccc(C(C)C)c1NC(=O)Cc1ccc(S(=O)(=O)N2CCOCC2)s1	-28.7%	–	2.06 µM [falling, full curve]
CCOc1ccc(NC(=O)C2CCN(S(=O)(=O)c3c(C)noc3C)CC2)cc1	–	–	3.66 µM [rising, partial curve]
COc1ccc(N(CC(=O)NCCC2=CCCCC2)S(C)(=O)=O)cc1OC	-26.9%	0.82 µM [falling, full curve, poor fit]	0.651 µM [falling, full curve, poor fit]
COc1ccc(OC)c(S(=O)(=O)NCC(=O)NC2CCCc3ccccc32)c1 (stereo not given)	-0.32%	–	14.6 µM [rising, single point]
O=C(NC1CCCCCC1)c1cccnc1Sc1ccc(Cl)cc1	10.1%	6.51 µM [rising, partial curve]	–
O=C(Cc1c(F)cccc1Cl)NCCc1c[nH]c2ccccc12	-1.32%	–	5.62 µM [falling, single point]
CCC(C)NC(=O)CSc1nc2n[nH]c(C)c2c(=N)n1-c1ccc(OC)cc1 (stereo not given)	-13.1%	–	–

Structure (SMILES)	cell number change	AC50 [1]	AC50 [2]
C/C(=N\NC(=O)c1ccc(Cn2cc([N+](=O)[O-])cn2)o1)c1cccc(NC(=O)c2cccnc2)c1	-0.689%	–	6.51 µM [rising, single point]
Cc1cc(Nc2ccc(C(=O)O)cc2)n2nc(C)nc2n1	-27.8%	1.03 µM [falling, full curve, poor fit]	3.66 µM [falling, full curve]
COCCn1c(SCC(=O)Nc2ccccc2OC)nnc1-c1ccco1	6.41%	–	6.51 µM [rising, partial curve, poor fit]
CNc1nccc(-c2ccc(F)cc2)c1C#N	23.3%	–	–
CCOC(=O)[C@H]1[C@H]2COc3ccc(C)cc3[C@@H]2N2C(=O)c3cc(Cl)ccc3NC(=O)[C@@]12C	-6.99%	–	18.4 µM [falling, single point]
COc1ccc(CC(=O)NCCC2=CCCCC2)cc1	6.89%	6.51 µM [rising, single point]	–
O=C1C2CCCN2C(c2ccc(F)cc2)N1c1nccs1 (stereo not given)	-13.7%	–	0.231 µM [falling, full curve]
Cc1ccc(C)c(OCCCCn2ccnc2)c1	111%	1.46 µM [rising, full curve]	2.06 µM [rising, full curve]
O=C(COc1ccc(Cl)cc1)NNC(=O)c1ccccc1C(=O)O	22.3%	–	6.51 µM [rising, partial curve, poor fit]
CC(=O)Nc1ccc(S(=O)(=O)N2CCNC(=O)CC2)cc1	18.2%	–	–
Cc1cc(C)n(CCOc2ccc(Br)cc2)n1	-13.6%	–	8.2 µM [rising, partial curve]
CCN(CC)S(=O)(=O)c1cccc(-c2nnc(SCC(=O)NC3CCCCCC3)n2N)c1	–	6.51 µM [falling, single point]	0.651 µM [falling, full curve, poor fit]
CCC(C)N1C(=O)S/C(=C/c2ccc(Sc3nc4ccccc4[nH]3)o2)C1=O (stereo not given)	-12.4%	3.26 µM [rising, single point]	6.51 µM [rising, single point]
Cc1ccc(N(CC(=O)Nc2ccc(-c3nc4ccc(C)cc4s3)cc2)S(C)(=O)=O)cc1	-27.4%	–	13 µM [falling, partial curve]
CCOC(=O)Cc1csc(NC(=O)c2c(-c3c(Cl)cccc3Cl)noc2C)n1	-8.51%	–	2.31 µM [falling, partial curve, poor fit]
CCN(CC)S(=O)(=O)c1ccc(N2CCN(c3ccccc3OC)CC2)c(N)c1	-6.72%	–	–
O=C(Cn1c2ccccc2c2nc3n(c(=O)c21)CCS3)Nc1ccccc1	136%	29.1 µM [rising, single point]	0.13 µM [falling, full curve, poor fit]
O=C(Nc1ccc(-n2ccc(C(F)(F)F)n2)cc1)Nc1cccc(Cl)c1	-17.2%	–	0.651 µM [falling, single point]
O=C(Nc1ccc(S(=O)(=O)N2CCc3ccccc32)cc1)c1ccc2c(c1)OCO2	-11.5%	5.17 µM [rising, single point]	1.3 µM [rising, full curve]
O=S(=O)(c1ccc(Cl)cc1)N1CCC(c2nc3ccccc3[nH]2)CC1	60.3%	29.1 µM [rising, single point]	–
CCc1ccc(NC(=O)NC2CCCCCCC2)cc1	-5.78%	–	–

Structure (SMILES)	cell number change	AC50 [1]	AC50 [2]
COc1ccccc1NC1CCCCC1NS(=O)(=O)c1ccc(C)cc1 (stereo not given)	-14.4%	–	0.184 µM [falling, partial curve]
O=c1oc2ccccc2n1CSC1=NCCS1	-27.8%	–	–
Cc1ccc(OCCSc2nc(NC(C)C)nc(NC(C)C)n2)cc1	13.6%	–	2.59 µM [rising, full curve]
NC(=O)C(c1ccc(Cl)cc1)c1ccc(Sc2ccccc2)nn1 (stereo not given)	135%	29.1 µM [rising, single point]	–
CC1(C(=O)O)CCC(C(=O)N2CCOCC2)C1(C)C (stereo not given)	-7.22%	–	–
Cc1c(NC(=S)NC(=O)CCc2ccccc2)c(=O)n(-c2ccccc2)n1C	6.82%	–	0.58 µM [falling, single point]
COc1ccc(OC)c(S(=O)(=O)NC2CC(=O)N(c3ccc(C)c(C)c3)C2)c1 (stereo not given)	63.2%	11.6 µM [rising, partial curve, poor fit]	–
COc1cccc(NS(=O)(=O)c2ccc(NC(C)=O)cc2)c1	–	2.59 µM [rising, partial curve]	–
Cn1c(/N=C/c2ccccc2[N+](=O)[O-])nc2ccccc21	6.73%	–	0.116 µM [rising, full curve, poor fit]
CC(=O)NC1CSCC1OC(C)=O (stereo not given)	-0.325%	–	–
COc1ccc(CNC(=O)/C(C#N)=C/c2cccc(OC)c2OC)cc1	-34%	16.4 µM [falling, single point]	18.4 µM [falling, single point]
O=C(O)CCCC(=O)Nc1cccc([N+](=O)[O-])c1	-123%	18.4 µM [falling, single point]	11.6 µM [falling, partial curve]
CC(CC(=O)N1CCc2ccccc21)c1ccccc1 (stereo not given)	–	0.82 µM [falling, full curve, poor fit]	1.3 µM [falling, full curve]
CC(C)N(C=O)C1(C(=O)NC2CCCCC2)CCCCC1	-68.5%	29.1 µM [falling, single point]	–
Cn1ncc(Br)c1C(=O)N1CCOCC1	43.7%	25.9 µM [rising, single point]	29.1 µM [rising, single point]
COc1ccc(-c2cc(C)no2)cc1S(=O)(=O)N1CCOc2ccccc21	2.69%	–	–
CN(C(=O)c1cccc(NC(=O)c2ccccc2)c1)C1CCCCC1	11.4%	–	29.1 µM [falling, single point]
CCCn1c(NCc2cc(C)ccc2O)nc2ccccc21	5.73%	–	–
Cc1cccc(C(=O)NCCCNC(=O)c2ccc(C)nc2)c1	22.3%	–	6.51 µM [rising, single point]

Whole records, looked up by structure.
NC(=O)C(c1ccc(Cl)cc1)c1ccc(Sc2ccccc2)nn1 (stereo not given) reads cell number change: 135%; AC50 [1]: 29.1 µM [rising, single point]
CC(C)N(C=O)C1(C(=O)NC2CCCCC2)CCCCC1 reads cell number change: -68.5%; AC50 [1]: 29.1 µM [falling, single point]
COc1cccc(NS(=O)(=O)c2ccc(NC(C)=O)cc2)c1 reads AC50 [1]: 2.59 µM [rising, partial curve]

From PubChem BioAssay AID2685 (National Center for Advancing Translational Sciences (NCATS), 2010)
